# Test results as given in PubChem BioAssay AID720711 (National Center for Advancing Translational Sciences (NCATS), 2013).
# Sequences of proteins named here, by UniProt entry; tags and fusion partners are left off.
# UniProt Q8WZA2, whole entry, looked up: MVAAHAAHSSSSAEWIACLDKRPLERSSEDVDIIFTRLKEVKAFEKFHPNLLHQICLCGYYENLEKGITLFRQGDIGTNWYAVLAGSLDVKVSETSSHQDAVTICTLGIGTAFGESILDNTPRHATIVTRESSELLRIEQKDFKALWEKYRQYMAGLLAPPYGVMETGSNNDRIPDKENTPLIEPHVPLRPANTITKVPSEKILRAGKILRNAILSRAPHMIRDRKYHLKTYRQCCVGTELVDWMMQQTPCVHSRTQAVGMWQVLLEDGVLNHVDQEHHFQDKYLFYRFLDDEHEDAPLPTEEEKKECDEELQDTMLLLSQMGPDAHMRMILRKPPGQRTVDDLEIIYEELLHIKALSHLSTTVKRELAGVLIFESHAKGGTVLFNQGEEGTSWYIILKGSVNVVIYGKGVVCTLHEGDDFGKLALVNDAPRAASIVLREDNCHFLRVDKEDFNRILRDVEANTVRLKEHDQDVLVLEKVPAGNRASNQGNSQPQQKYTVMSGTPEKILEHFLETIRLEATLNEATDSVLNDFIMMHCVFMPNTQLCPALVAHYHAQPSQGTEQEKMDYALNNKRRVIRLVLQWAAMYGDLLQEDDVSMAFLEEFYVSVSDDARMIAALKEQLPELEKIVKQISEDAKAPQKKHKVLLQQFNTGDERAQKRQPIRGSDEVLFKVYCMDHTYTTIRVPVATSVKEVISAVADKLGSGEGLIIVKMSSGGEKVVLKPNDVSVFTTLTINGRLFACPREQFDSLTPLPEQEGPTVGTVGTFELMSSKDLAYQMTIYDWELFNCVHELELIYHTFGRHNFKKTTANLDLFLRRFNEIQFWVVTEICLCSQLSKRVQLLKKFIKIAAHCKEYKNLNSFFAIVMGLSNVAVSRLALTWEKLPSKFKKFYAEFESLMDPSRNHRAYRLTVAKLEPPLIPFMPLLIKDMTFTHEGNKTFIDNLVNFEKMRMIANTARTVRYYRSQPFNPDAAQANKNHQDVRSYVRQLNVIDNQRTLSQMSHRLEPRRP
# Screen size: about 360,000 compounds; about 290 (0.081%) were called active. Inconclusive results, whose numbers are uncertain, are shown with a selection of clear calls. Calls follow the shape of the dose curve; as a rule, active = well fitted activation curve with a large enough effect; inconclusive = small, poorly fitted or top-dose-only effect; inactive = no such curve, though single readings can be large or run the other way. A potency beside an inconclusive call is a rough fit, not a confirmed value.
# Biological target: Rap guanine nucleotide exchange factor 4 (Homo sapiens) (UniProt Q8WZA2)
# Test: qHTS for Agonist of cAMP-regulated guanine nucleotide exchange factor 4 (EPAC2): primary screen; also: nearly all actives have a fitted effect of over 50% in size
# Details: biochemical qHTS; Potency: EPAC2 activation unless noted; activation: at 154 µM (top of the series), 100% = 6.5 mM cAMP response unless noted
# Procedure, shortened: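 qHTS, titration series. 100 nM EPAC2 / 250 nM Rap1B-BODIPY-GDP / 50 uM GDP; RT; ex 480/em 540 nm, 5-min reads to 30 min. Norm. to 6.5 mM cAMP = activation.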
# Potency is read from the fitted curve at half-maximal effect.
SMILES,Potency,activation
CNc1ccc2c3c(cccc13)C(=O)N(C)C2=O,"inconclusive: 126 µM [activator, partial curve, poor fit]",–
COc1ccc(N(C)C(=O)CC2(CC(=O)O)CCCCC2)cc1,"inconclusive: 126 µM [activator, single point]",–
COc1cc2c(cc1OC)-c1cc(NC3CCCCC3)nc(=O)n1CC2,active: 6.31 µM,–
O=C(NCc1cc(C(F)(F)F)ccc1Cl)c1cccc2c1C(=O)c1ccc(N3CCC(N4CCCCC4)CC3)cc1S2(=O)=O,active: 89.1 µM,–
CCN1CC=C2C(C#N)=C(N)C(C#N)(C#N)[C@H](c3ccoc3)[C@H]2C1,"inconclusive: 89.1 µM [activator, partial curve]",–
CCCn1c(/N=C/c2ccc3c(c2)OCO3)nc2ccccc21,"inconclusive: 126 µM [activator, single point]",–
Cc1nn(-c2ccccc2)c(Cl)c1/C=C1\SC(=S)N(CCCCCC(=O)O)C1=O,–,inactive: 6.35%
Nc1ccc(N2CCN(c3ccc(F)cc3)CC2)cc1,–,inactive: 13.8%
CCCCNC(=O)Nc1nc2ccccc2s1,"inconclusive: 50.1 µM [activator, single point]",–
C#CCOCCOCCOCCNc1nc(N2CCN(C(=O)CCCCCCCCCCNC(=O)[C@H]([C@@H](C)CC)n3cc(CCCCCN)nn3)CC2)nc(N2CCN(C(=O)CCCCCCCCCCNC(=O)[C@@H]([C@H](C)O)n3cc(C)nn3)CC2)n1,"inconclusive: 63.1 µM [activator, partial curve]",–
CS(=O)(=O)N(CC(=O)NCCSCc1c(F)cccc1Cl)c1ccc2c(c1)OCO2,–,inconclusive: 0% [activator]
CC(C)SCCCOc1ccc(C(C)(C)C)cc1,–,"inconclusive: 116% [activator] [at 15.6 µM, 100% = 6.5 mM cAMP response]"
CSc1ccc(C(O)c2ncc(-c3cccc(F)c3)[nH]2)cc1 (stereo not given),–,inactive: 0.674%
O=C(COC(=O)c1ccccc1F)NC1CCCC1,–,inactive: 4.65%
CC(=O)c1cccc(NC(=O)CCCSc2ccccc2)c1,–,inactive: 4.26%
Cc1cc(OC(=O)c2ccc(Cl)cc2)cc(=O)n1C,"inconclusive: 112 µM [activator, single point]",–
CC1(C)Oc2ccc3ccc(=O)oc3c2-c2cn[nH]c21,"inconclusive: 126 µM [activator, single point]",–
CC(C)CSC1=NSC2=NC(=O)/C(=C\c3coc4ccccc4c3=O)C(=N)N12,"inconclusive: 126 µM [activator, single point]",–
Nc1nc2ccc(C(=O)NC3CCCCC3)cc2s1,"inconclusive: 4.47 µM [activator, full curve, poor fit]",–
COc1ccc(CNC(=O)c2ccc(-c3cccnc3)c3ccoc23)cc1OC,–,inactive: 5.81%
CC1CCCC(NC(=O)COC(=O)CCC2CCCC2)C1C (stereo not given),"inconclusive: 50.1 µM [activator, single point]",–
Cc1sc2nc3n(c(=O)c2c1C)NC(=O)CC3,"inconclusive: 100 µM [activator, partial curve]",–
CC(C)CC1=NN2C(=N)/C(=C\c3coc4ccccc4c3=O)C(=O)N=C2S1,active: 63.1 µM,–
CCN=C1S/C(=C\c2cc(Br)ccc2OCC(=O)OCC)C(=O)N1CC,–,inactive: -3.99%

# Among those listed so far, eleven have nitrogen in an aromatic ring.
SMILES,Potency,activation
COc1cc2c(cc1OC)-c1cc(NC3CCCCC3)nc(=O)n1CC2,active: 6.31 µM,–
CCCn1c(/N=C/c2ccc3c(c2)OCO3)nc2ccccc21,"inconclusive: 126 µM [activator, single point]",–
Cc1nn(-c2ccccc2)c(Cl)c1/C=C1\SC(=S)N(CCCCCC(=O)O)C1=O,–,inactive: 6.35%
CCCCNC(=O)Nc1nc2ccccc2s1,"inconclusive: 50.1 µM [activator, single point]",–
C#CCOCCOCCOCCNc1nc(N2CCN(C(=O)CCCCCCCCCCNC(=O)[C@H]([C@@H](C)CC)n3cc(CCCCCN)nn3)CC2)nc(N2CCN(C(=O)CCCCCCCCCCNC(=O)[C@@H]([C@H](C)O)n3cc(C)nn3)CC2)n1,"inconclusive: 63.1 µM [activator, partial curve]",–
CSc1ccc(C(O)c2ncc(-c3cccc(F)c3)[nH]2)cc1 (stereo not given),–,inactive: 0.674%
Cc1cc(OC(=O)c2ccc(Cl)cc2)cc(=O)n1C,"inconclusive: 112 µM [activator, single point]",–
CC1(C)Oc2ccc3ccc(=O)oc3c2-c2cn[nH]c21,"inconclusive: 126 µM [activator, single point]",–
Nc1nc2ccc(C(=O)NC3CCCCC3)cc2s1,"inconclusive: 4.47 µM [activator, full curve, poor fit]",–
COc1ccc(CNC(=O)c2ccc(-c3cccnc3)c3ccoc23)cc1OC,–,inactive: 5.81%
Cc1sc2nc3n(c(=O)c2c1C)NC(=O)CC3,"inconclusive: 100 µM [activator, partial curve]",–

# (list continues)

SMILES,Potency,activation
COc1ccc(NS(=O)(=O)c2ccc(NC(=S)NC(=O)c3ccc(Br)cc3)cc2)nn1,–,inactive: 2.5%
CCCN1CCc2c(sc(NC(=O)c3ccc(S(=O)(=O)N(C)c4ccccc4)cc3)c2C(N)=O)C1,active: 112 µM,–
CCOC(=O)c1cnn(-c2nc3c(C)cccc3s2)c1C(F)(F)F,"inconclusive: 7.94 µM [activator, partial curve]",–
O=C1OC(c2ccccc2)/C(=C(/O)c2ccccc2)C1=O (stereo not given),"inconclusive: 10 µM [activator, full curve, poor fit]",–
CSCCC(c1nc2ccccc2[nH]1)n1c(=O)c(-c2ccco2)nc2ccccc21 (stereo not given),–,inactive: 13%
COc1cc2c(cc1OC)-c1cc3ccc4c(c3c[n+]1CC2)OCO4,"inconclusive: 126 µM [activator, single point]",–
Cn1c2c(c(=O)n3ncnc13)CCCC2,–,inactive: 5.21%
O=C1c2cccc3c(N4CCCCC4)ccc(c23)C(=O)N1c1ccccn1,–,inactive: -9.53%
CC(C)c1cccc(C(C)C)c1NC(=O)OC1CCCCC1,–,inactive: -7.2%
CCOc1ccc(N=C2NC(=O)S/C2=C\c2ccc(N(C)C)cc2)cc1,"inconclusive: 126 µM [activator, single point]",–
C=CC(=O)Nc1cccc(Oc2ccnc3[nH]ccc23)c1,"inconclusive: 63.1 µM [activator, partial curve]",–
COc1ccc2[nH]c(C)c(CCNC(=S)Nc3ccc(C)cc3)c2c1,"inconclusive: 126 µM [activator, partial curve]",–
Cc1ccccc1C(=O)N=c1ccn(-c2nc3ccccc3nc2NS(=O)(=O)c2ccc(F)cc2)cc1,"inconclusive: 35.5 µM [activator, single point]",–
COc1ccc(CNc2oc(Cc3cccc4ccccc34)nc2C#N)cc1,–,"inconclusive: 96.5% [activator] [at 15.6 µM, 100% = 6.5 mM cAMP response]"
O=C1C(=Cc2ccco2)CCCC1=Cc1ccco1,–,inactive: 5.6%
COc1ccc(CN(C)CC(=O)Nc2ccc(Cl)cc2F)c(OC)c1,"inconclusive: 89.1 µM [activator, partial curve]",–
CCc1cn(C2CC(O)C(CO)O2)c(=O)[nH]c1=O (stereo not given),–,inactive: 6.94%
O=C(CCn1c(=O)sc2ccccc21)Nc1nc2ccccc2s1,"inconclusive: 112 µM [activator, single point]",–
CC1(C)CN(CCc2ccccc2)C(=O)[C@H]1CC(=O)Nc1ccc(Br)cc1,–,inactive: 2.53%
Cc1nc(Nc2ccc(S(=O)(=O)N3CCCCC3C)cc2)c2nnn(Cc3ccccc3)c2n1 (stereo not given),"inconclusive: 112 µM [activator, single point]",–
CCOc1ccc(-c2nn(-c3ccccc3)cc2/C=C2\SC(=S)N(C3CCS(=O)(=O)C3)C2=O)cc1 (stereo not given),"inconclusive: 89.1 µM [activator, partial curve]",–
CCCCOC(=O)CCn1c(=S)oc2ccccc21,–,"inconclusive: 49.4% [activator] [at 15.6 µM, 100% = 6.5 mM cAMP response]"
COc1ccc(C(=O)/C=C2/C(=O)Nc3ccccc32)cc1,–,inactive: 14%
CC1S/C(=N/N=C2CCC(C(C)(C)C)CC2)NC1=O (stereo not given),"inconclusive: 50.1 µM [activator, single point]",–

# Record cards, as listed above:
# COc1cc2c(cc1OC)-c1cc3ccc4c(c3c[n+]1CC2)OCO4 is listed as Potency: inconclusive: 126 µM [activator, single point]
# CC1(C)CN(CCc2ccccc2)C(=O)[C@H]1CC(=O)Nc1ccc(Br)cc1 is listed as activation: inactive: 2.53%

# (continued)

SMILES,Potency,activation
COc1ccc(-c2nnc(SC(C)C(=O)NCc3ccc4c(c3)OCO4)n2Cc2ccco2)cc1 (stereo not given),–,"inconclusive: 48.6% [activator] [at 15.6 µM, 100% = 6.5 mM cAMP response]"
c1ccc(COc2ccc(CN3CCN(c4ccccn4)CC3)cc2)cc1,–,inactive: 15.4%
O=C(O)Cc1sc(Nc2cccc3ccccc23)nc1-c1ccccc1,–,inactive: 7.93%
COc1cccc(CC2(CO)CCCN(Cc3ccc(OC)c(C)c3OC)C2)c1 (stereo not given),–,inactive: 19.5%
O=C(c1ccc(CN2CCc3ccccc3C2)cc1)N1CCCCC1,–,"inconclusive: 59.1% [activator] [at 15.6 µM, 100% = 6.5 mM cAMP response]"
COc1ccc(N2C(=O)CC(Sc3ccccc3C(=O)O)C2=O)c([N+](=O)[O-])c1 (stereo not given),–,inactive: 1.05%
O=C(N=c1ccn(-c2nc3ccccc3nc2NS(=O)(=O)c2ccccc2)cc1)c1ccccc1Cl,"inconclusive: 31.6 µM [activator, full curve, poor fit]",–
CCN(Cc1ccncc1)C(=O)c1cccc(S(=O)(=O)N2CCOCC2)c1,–,"inconclusive: 84% [activator] [at 15.6 µM, 100% = 6.5 mM cAMP response]"
CCC(C)C(=O)NCCc1ccc(S(N)(=O)=O)cc1 (stereo not given),"inconclusive: 100 µM [activator, single point]",–
O=C(CCN1C(=O)/C(=C/c2cccs2)SC1=S)Nc1ccccn1,"inconclusive: 112 µM [activator, single point]",–
Cc1ccc(F)cc1C(=O)N1CCCCC1c1cc(C(=O)Nc2ccccc2)no1 (stereo not given),–,inactive: 13.4%
COc1ccccc1/C=C/C=C1\Oc2c(ccc(O)c2CN(C)C)C1=O,"inconclusive: 35.5 µM [activator, partial curve]",–
COc1ccc([N+](=O)[O-])cc1NC(=S)Nc1ccccc1,active: 7.94 µM,–
COc1cc(-c2c(C#N)c(N)nc(SCc3ccncc3)c2C#N)cc(OC)c1OC,"inconclusive: 126 µM [activator, partial curve]",–
CS(=O)(=O)N(CC(O)CON=C1c2ccccc2-c2ccccc21)c1ccc(F)cc1 (stereo not given),"inconclusive: 89.1 µM [activator, partial curve]",–
CC(=O)c1csc(COc2ccc(Cl)cc2)n1,–,inactive: 2.42%
CC1=CC(=C2N=C(c3ccccc3)OC2=O)C=C(C)O1,"inconclusive: 126 µM [activator, single point]",–
CNC(=O)c1c(NC(=O)c2ccc(S(=O)(=O)N(C)c3ccccc3)cc2)sc2c1CCN(C(C)C)C2,"inconclusive: 112 µM [activator, partial curve]",–
C=CCS/C(=N\n1cnc2ccccc2c1=O)N(CC)CC,"inconclusive: 3.55 µM [activator, full curve, poor fit]",–
COc1ccc(Cl)cc1N1CCN(CCNC(=O)Nc2ccccc2C)CC1,"inconclusive: 28.2 µM [activator, single point]",–
COCCn1c2nc(=O)n(-c3ccccc3)c(=O)c-2nc2ccccc21,active: 89.1 µM,–
CC(=Nc1ccc(C)cc1C)c1sc2ccccc2c1O,"inconclusive: 100 µM [activator, partial curve]",–
